Among all 300,000 compounds or so, about 5,400 (1.8%) were called active. Inconclusive results, whose numbers are uncertain, are shown with a selection of clear calls. Calls come from the whole dose curve; tested in HEK293 cells. A potency beside an inconclusive call is a rough fit, not a confirmed value.
Assay: qHTS for inhibitors of binding or entry into cells for Marburg Virus
Conditions: Marburg virus pseudotyped entry inhibition, cell reporter; activity change, negative = inhibition: at 37.8 µM (top of the series) unless noted
% is set by controls: 0 for no effect and ±100 for the full control effect; potency is the fitted concentration of half-maximal effect.

Q: Which Potency does the source give for `COc1cc(OC)cc(-c2nc(-c3ccc(Br)cc3)no2)c1` here?
A: Its Potency is inconclusive: 5.8 µM [activator, full curve, poor fit].

Q: For `Cc1ccccc1-c1nnc(NC(=O)CSc2nc3ccccc3s2)s1`, which Potency is on record?
A: The Potency was inconclusive: 29.1 µM [activator, single point].

Q: With `CSCC[C@H](NC(=O)NCc1ccc(F)cc1)C(=O)O` as the compound, how does the Potency read?
A: Its Potency is inconclusive: 6.31 µM [inhibitor, single point].

Q: For `COc1ccc2c(COC(=O)CCS(=O)(=O)c3ccc(C)cc3)cc(=O)oc2c1`, which “activity change, negative = inhibition” value is on record?
A: The value was inactive: 4.91%.

Q: Which Potency does the source give for `Cc1ccc(N(C(=O)c2snc(C(N)=O)c2N)C(C(=O)NCc2ccccc2)c2ccncc2)c(C)c1` (centres undefined) here?
A: Its Potency is inconclusive: 1.78 µM [inhibitor, partial curve, poor fit].

Q: Which Potency does the source give for `CC(C)c1ccc(NC(=O)CN2C(=O)c3ccccc3S2(=O)=O)cc1` here?
A: Its Potency is inconclusive: 15.8 µM [inhibitor, single point].

Q: With `COc1ccc(OC)c(NC(=O)COC(=O)CCc2nc3ccccc3c(=O)[nH]2)c1` as the compound, how does the Potency read?
A: Its Potency is inconclusive: 5.62 µM [inhibitor, single point].

Q: For `Cc1nc(N=Nc2ccc(C(=O)O)cc2)c(COP(=O)(O)O)c(C=O)c1O`, which Potency is on record?
A: Its Potency is inconclusive: 0.794 µM [inhibitor, full curve, poor fit].

Q: Which Potency does the source give for `O=C(NNC(=O)c1ccccc1OCc1ccc(F)cc1)c1ccncc1` here?
A: The Potency was inconclusive: 8.91 µM [inhibitor, partial curve, poor fit].

Q: For `O=C(N/N=C/c1ccco1)c1ccc(NC(=O)c2ccccc2Cl)cc1`, which “activity change, negative = inhibition” value is on record?
A: Its value is inactive: 1.01% [at 46.1 µM].

Q: For `O=C(O)c1ccc2c(=O)n3c(nc2c1)/C(=C/c1ccc(OC(F)F)cc1OC(F)F)CC3`, which “activity change, negative = inhibition” value is on record?
A: Its value is inactive: 14.9% [at 46.1 µM].

Q: With `Cc1cccc(C)c1NC(=S)Nc1ccc(Cl)c(Cl)c1` as the compound, how does the Potency read?
A: Its Potency is inconclusive: 17.8 µM [inhibitor, single point].

Q: With `N#Cc1nc(COc2cccc(Cl)c2)oc1N1CCN(c2ccccc2)CC1` as the compound, how does the Potency read?
A: The Potency was inconclusive: 29.1 µM [inhibitor, single point].

Q: With `CCCCOc1nnc(-c2ccc(OCC)cc2)c2ccccc12` as the compound, how does the Potency read?
A: Its Potency is inconclusive: 5.62 µM [inhibitor, partial curve, poor fit].

Q: With `OC(COC(c1ccc(Cl)cc1)c1ccc(Cl)cc1)CN1CCCC1` (centres undefined) as the compound, how does the Potency read?
A: Its Potency is inconclusive: 23.1 µM [inhibitor, single point].

Q: Which Potency does the source give for `CC(C)(C)C1CCC(=NNC(=O)CN(c2ccccc2)S(=O)(=O)c2ccccc2[N+](=O)[O-])CC1` (centres undefined) here?
A: The Potency was “inactive”.

Q: With `CCCCCN=CC1=C(O)CC(c2ccccc2)CC1=O` (centres undefined) as the compound, how does the Potency read?
A: The Potency was inconclusive: 35.5 µM [inhibitor, partial curve, poor fit].

Q: With `Cc1ccc2oc(C(F)(F)C(F)F)cc(=O)c2c1` as the compound, how does the Potency read?
A: Its Potency is inconclusive: 6.31 µM [activator, single point].

Q: For `CCOC(=O)N1CCN(C(=O)c2ccc3c(c2)N(Cc2cc(C)ccc2C)C(=O)c2ccccc2S3=O)CC1` (centres undefined), which Potency is on record?
A: The Potency was inconclusive: 22.4 µM [inhibitor, partial curve, poor fit].

Q: With `CCc1nnc(NC(=O)C2CC(=O)N(CCc3ccc(F)cc3)C2)s1` (centres undefined) as the compound, how does the “activity change, negative = inhibition” value read?
A: The value was inactive: -1.42% [at 46.1 µM].

Q: With `O=C(CCCN1C(=O)/C(=C/c2ccccc2Cl)SC1=S)NCCCN1CCOCC1` as the compound, how does the Potency read?
A: Its Potency is inconclusive: 20 µM [inhibitor, partial curve, poor fit].

Q: For `COc1ccc(C2=NN(c3nc(-c4ccc(CNC(C)=O)cc4)cs3)C(c3ccco3)C2)cc1` (centres undefined), which Potency is on record?
A: The Potency was inconclusive: 11.2 µM [activator, partial curve, poor fit].

Q: With `O=[N+]([O-])c1ccc2nc(-c3ccccc3[N+](=O)[O-])[nH]c2c1` as the compound, how does the “activity change, negative = inhibition” value read?
A: Its value is inactive: -19.8% [at 46.1 µM].

Q: With `COc1ccc2nc(NC(=O)c3ccoc3C)sc2c1` as the compound, how does the Potency read?
A: Its Potency is inconclusive: 6.51 µM [inhibitor, full curve].

Q: With `COc1ccc(C2c3[nH]c4ccccc4c3CCN2CCCn2cccn2)cc1C` (centres undefined) as the compound, how does the Potency read?
A: The Potency was inconclusive: 8.91 µM [inhibitor, partial curve, poor fit].

Q: For `O=C(CSc1nnc(-c2ccc(Cl)cc2)o1)N1CCc2ccccc21`, which “activity change, negative = inhibition” value is on record?
A: Its value is inactive: 25% [at 46.1 µM].

Q: Which Potency does the source give for `Cc1ccc(C)c(N2CCN(CCCNC(=O)Cn3cccc3C(=O)c3ccccc3C)CC2)c1` here?
A: The Potency was inconclusive: 14.1 µM [inhibitor, single point].

Q: For `Cc1cc(C)cc(NC(=O)C(NS(=O)(=O)c2cccc3nsnc23)c2ccccc2)c1` (centres undefined), which Potency is on record?
A: Its Potency is inconclusive: 35.5 µM [inhibitor, partial curve, poor fit].

Q: Which “activity change, negative = inhibition” value does the source give for `Cc1ccc(C(=O)CNc2ccccc2C)cc1` here?
A: Its value is inactive: 22.7%.

Q: Which Potency does the source give for `CC(C)c1ccc(C2N3CCCN23)cc1` (centres undefined) here?
A: The Potency was inconclusive: 0.794 µM [activator, full curve, poor fit].

Q: For `Cc1ccc(Cl)c(OC(=O)C2CSC3(C)CCC(=O)N23)c1` (centres undefined), which Potency is on record?
A: Its Potency is inconclusive: 0.708 µM [inhibitor, single point].

Q: Which “activity change, negative = inhibition” value does the source give for `FC(F)(F)c1cc(C(F)(F)F)c2ccc(N/N=C/c3ccccc3)nc2n1` here?
A: The value was inactive: -3.41%.

Q: With `O=S(=O)(c1ccccc1)c1nnn2c1nc(Nc1ccccc1)c1cc(Cl)ccc12` as the compound, how does the “activity change, negative = inhibition” value read?
A: Its value is inactive: 7.87% [at 46.1 µM].

Q: Which “activity change, negative = inhibition” value does the source give for `Cc1c(C(=O)Nc2ccc3c(c2)OCCO3)cnn1C` here?
A: The value was inactive: -19.7% [at 46.1 µM].

Q: Which Potency does the source give for `O=C(OCC(=O)N1CCN(C(=O)c2ccco2)CC1)c1cn(-c2ccccc2)nc1-c1ccccc1` here?
A: The Potency was “inactive”.

Q: Which “activity change, negative = inhibition” value does the source give for `COc1cccc(C(C(=O)NC2CCCCC2)N(C(=O)c2ccccn2)c2cccnc2)c1` (centres undefined) here?
A: The value was inactive: 13.2% [at 46.1 µM].

Q: For `CCn1c(CN2CCN(Cc3ccc(C)cc3)C(CCO)C2)nc2ccccc21` (centres undefined), which Potency is on record?
A: Its Potency is inconclusive: 10 µM [inhibitor, partial curve, poor fit].

Q: Which “activity change, negative = inhibition” value does the source give for `O=C(c1cccc(-c2ccc(O)cc2)c1)N1CCN(c2ccc(F)cc2)CC1` here?
A: The value was inactive: 1.36% [at 46.1 µM].

Q: Which Potency does the source give for `CCC(Sc1nc2ccncc2[nH]1)C(=O)Nc1ccc(F)cc1` (centres undefined) here?
A: Its Potency is inconclusive: 35.5 µM [inhibitor, single point].

Q: Which Potency does the source give for `O=c1[nH]c(CN2CCCCC2)nc2c1C1(CCCCC1)Cc1ccccc1-2` here?
A: The Potency was inconclusive: 1.12 µM [activator, partial curve, poor fit].

Q: Which “activity change, negative = inhibition” value does the source give for `CCOC(=O)CC1C(=O)NCCN1S(=O)(=O)c1ccc(Cl)cc1` (centres undefined) here?
A: Its value is inactive: -11.7%.

Q: For `C/C(CC1CC(C)(C)OC1=O)=N\NC(N)=S` (centres undefined), which “activity change, negative = inhibition” value is on record?
A: The value was inactive: -8.64% [at 46.1 µM].

Q: For `COc1ccccc1NS(=O)(=O)c1cc(NC(=O)CNC(=O)c2ccc(C)s2)ccc1Cl`, which Potency is on record?
A: The Potency was inconclusive: 28.2 µM [inhibitor, partial curve, poor fit].

Q: For `CCOc1ccc(S(=O)(=O)N2CCCC(C(=O)NCc3cccnc3)C2)cc1Cl` (centres undefined), which Potency is on record?
A: Its Potency is inconclusive: 32.6 µM [inhibitor, partial curve, poor fit].

Q: With `COc1ccc(S(=O)(=O)N2c3cc(Cl)ccc3Oc3nc4ccccc4nc32)cc1` as the compound, how does the “activity change, negative = inhibition” value read?
A: The value was inactive: -9.84%.

Q: For `Cc1oc(-c2ccc(Cl)cc2)nc1CS(=O)CC(=O)N1CCC2(CC1)OCCO2` (centres undefined), which Potency is on record?
A: The Potency was “inactive”.

Q: For `COC(=O)N1CCc2c(sc(NC(=O)C3COc4ccccc4O3)c2C(N)=O)C1` (centres undefined), which Potency is on record?
A: Its Potency is inconclusive: 31.6 µM [inhibitor, single point].

Q: For `OCCCc1nc2ccccc2n1CCc1ccccc1`, which Potency is on record?
A: The Potency was “inactive”.

Q: With `C/C(=N\NC(=O)c1cccc(N/N=C(\C)c2cc(O)ccc2O)c1)c1cc(O)ccc1O` as the compound, how does the Potency read?
A: Its Potency is inconclusive: 20 µM [inhibitor, partial curve, poor fit].

Q: With `CCN(CC)S(=O)(=O)c1ccc2c(c1)c(=O)c(C(=O)NCCOC)cn2C` as the compound, how does the “activity change, negative = inhibition” value read?
A: Its value is inactive: -8.09%.

Q: With `COc1ccc(C)cc1NC(=O)c1ccc(NS(=O)(=O)c2cccs2)cc1` as the compound, how does the “activity change, negative = inhibition” value read?
A: Its value is inactive: 2.52% [at 46.1 µM].

Q: For `CC1Cc2ccccc2N1C(=S)NC(=O)C1(C)CC1(Cl)Cl` (centres undefined), which Potency is on record?
A: The Potency was inconclusive: 31.6 µM [inhibitor, partial curve, poor fit].

Q: With `CCCCNC(=O)C1=CC(c2ccc3c(c2)OCO3)=NS(=O)(=O)N1C` as the compound, how does the “activity change, negative = inhibition” value read?
A: The value was inactive: 23.3% [at 46.1 µM].

Q: Which “activity change, negative = inhibition” value does the source give for `CCOc1cc(NC(=O)C2CC2)c(OCC)cc1NC(=O)c1cc(OC)c(OC)c(OC)c1` here?
A: The value was inactive: 10.9% [at 46.1 µM].

Q: Which Potency does the source give for `O=C(NCCN1CCN(C(=O)c2c(F)cccc2F)CC1)C(=O)Nc1ccc(Cl)cc1` here?
A: The Potency was inconclusive: 11.2 µM [inhibitor, single point].

Q: Which Potency does the source give for `Cc1cc2cc(CN3C(=O)c4ccccc4C3=O)ccc2[nH]1` here?
A: The Potency was inconclusive: 0.731 µM [activator, full curve, poor fit].

Q: With `O=C(Nc1ccccc1)c1ccc[n+](Cc2ccc([N+](=O)[O-])cc2)c1` as the compound, how does the Potency read?
A: Its Potency is inconclusive: 20 µM [activator, single point].

Q: For `CCN(CC)C(=S)NC(=O)c1cc(OC)c(OC)c(OC)c1`, which “activity change, negative = inhibition” value is on record?
A: Its value is inactive: 0.293%.

Q: For `CC1CCN(S(=O)(=O)c2cccc(C(N)=O)c2)CC1`, which Potency is on record?
A: The Potency was inconclusive: 35.5 µM [activator, single point].

Q: For `CCCCCC(=O)Nc1ccc2oc(-c3cncc(Br)c3)nc2c1`, which “activity change, negative = inhibition” value is on record?
A: The value was inactive: 0.43%.

Q: With `O=[N+]([O-])c1ccc(Oc2ccc(S(=O)(=O)Nc3ccccc3)cc2)cc1` as the compound, how does the Potency read?
A: The Potency was inconclusive: 10 µM [inhibitor, partial curve].

Q: Which Potency does the source give for `Cc1noc(NS(=O)(=O)c2ccc(NC(=O)CS(=O)(=O)c3ccccc3)cc2)c1C` here?
A: The Potency was inconclusive: 2.51 µM [inhibitor, single point].

Q: Which Potency does the source give for `CC1=CC(C)(C)n2c(O)c(N=N)c3c(C)c(C)cc1c32` here?
A: The Potency was inconclusive: 1.41 µM [inhibitor, full curve].

Q: With `O=C(c1cc2ccccc2o1)N1CCOCC1` as the compound, how does the Potency read?
A: Its Potency is inconclusive: 3.55 µM [activator, full curve, poor fit].

Q: With `N#Cc1ccc2nc3c(nc2c1)CCCC3` as the compound, how does the Potency read?
A: Its Potency is inconclusive: 11.2 µM [inhibitor, partial curve, poor fit].

Q: Which Potency does the source give for `O=C(NCC(=O)N1CCCC(C(F)(F)F)C1)c1ccccc1F` (centres undefined) here?
A: The Potency was inconclusive: 39.8 µM [activator, partial curve, poor fit].

Q: For `CC1(C)CC(N2CCCC2)=CC(=[N+]2CCCCC2)C1`, which Potency is on record?
A: Its Potency is inconclusive: 4.11 µM [inhibitor, partial curve, poor fit].

Q: Which “activity change, negative = inhibition” value does the source give for `CC(OC(=O)CCC(=O)c1ccc(F)cc1)C(=O)NC1CCCCC1C` (centres undefined) here?
A: Its value is inactive: -14.5%.

Q: With `Cc1ccc(/C=N/n2nnnc2N)cc1` as the compound, how does the Potency read?
A: The Potency was inconclusive: 12.6 µM [activator, partial curve, poor fit].
